Results taken from the supplement of paper PMC10849652.
The other results are listed elsewhere or left out.

Chains of the proteins cited; added tags and fusions are not shown. Lines headed by an entry give the natural chain unless they say otherwise; changes in a name come on top.
UniProt Q9BQY4: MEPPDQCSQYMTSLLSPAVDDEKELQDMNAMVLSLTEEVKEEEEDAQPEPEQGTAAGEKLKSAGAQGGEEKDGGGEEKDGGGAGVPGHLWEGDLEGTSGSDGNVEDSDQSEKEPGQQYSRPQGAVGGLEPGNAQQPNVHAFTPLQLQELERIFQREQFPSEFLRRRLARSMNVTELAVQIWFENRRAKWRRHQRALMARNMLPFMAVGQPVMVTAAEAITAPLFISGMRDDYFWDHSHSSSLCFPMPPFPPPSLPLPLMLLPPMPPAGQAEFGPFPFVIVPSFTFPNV
UniProt P18754: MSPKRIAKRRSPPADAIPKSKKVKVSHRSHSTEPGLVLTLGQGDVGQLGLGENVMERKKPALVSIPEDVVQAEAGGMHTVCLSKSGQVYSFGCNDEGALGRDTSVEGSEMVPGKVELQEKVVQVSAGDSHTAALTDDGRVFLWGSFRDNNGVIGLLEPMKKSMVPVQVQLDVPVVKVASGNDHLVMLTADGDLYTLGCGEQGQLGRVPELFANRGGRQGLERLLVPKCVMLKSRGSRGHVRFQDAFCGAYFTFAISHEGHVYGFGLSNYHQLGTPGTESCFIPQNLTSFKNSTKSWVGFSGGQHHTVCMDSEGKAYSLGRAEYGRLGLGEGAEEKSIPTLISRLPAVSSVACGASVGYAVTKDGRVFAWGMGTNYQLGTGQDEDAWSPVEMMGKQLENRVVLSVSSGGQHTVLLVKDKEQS
UniProt P38159: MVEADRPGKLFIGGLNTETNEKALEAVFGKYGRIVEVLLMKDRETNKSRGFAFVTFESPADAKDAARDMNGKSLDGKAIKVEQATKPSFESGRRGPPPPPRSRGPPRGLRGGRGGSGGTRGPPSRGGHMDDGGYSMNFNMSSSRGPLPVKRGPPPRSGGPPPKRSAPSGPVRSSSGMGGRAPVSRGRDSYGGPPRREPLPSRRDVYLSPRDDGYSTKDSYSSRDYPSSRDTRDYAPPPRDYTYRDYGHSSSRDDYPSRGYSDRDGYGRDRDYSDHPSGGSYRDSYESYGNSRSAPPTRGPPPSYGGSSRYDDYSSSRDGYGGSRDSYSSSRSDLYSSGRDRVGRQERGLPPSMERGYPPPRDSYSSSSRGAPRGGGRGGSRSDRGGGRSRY
UniProt Q5VTB9: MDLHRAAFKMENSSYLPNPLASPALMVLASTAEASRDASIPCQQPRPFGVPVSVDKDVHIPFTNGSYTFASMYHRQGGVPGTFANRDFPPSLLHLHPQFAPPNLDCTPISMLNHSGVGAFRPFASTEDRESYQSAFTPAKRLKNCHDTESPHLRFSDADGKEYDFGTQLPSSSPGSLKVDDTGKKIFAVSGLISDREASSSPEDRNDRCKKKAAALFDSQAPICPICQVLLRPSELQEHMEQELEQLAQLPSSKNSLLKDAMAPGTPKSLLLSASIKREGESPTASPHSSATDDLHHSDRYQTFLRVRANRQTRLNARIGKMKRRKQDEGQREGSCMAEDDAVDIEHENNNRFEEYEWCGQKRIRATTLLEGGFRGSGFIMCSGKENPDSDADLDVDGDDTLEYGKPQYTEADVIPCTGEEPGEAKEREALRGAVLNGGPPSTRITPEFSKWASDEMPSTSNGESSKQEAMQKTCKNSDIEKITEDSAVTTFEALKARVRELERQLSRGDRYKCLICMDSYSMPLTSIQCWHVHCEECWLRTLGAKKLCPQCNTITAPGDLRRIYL
UniProt Q9H871: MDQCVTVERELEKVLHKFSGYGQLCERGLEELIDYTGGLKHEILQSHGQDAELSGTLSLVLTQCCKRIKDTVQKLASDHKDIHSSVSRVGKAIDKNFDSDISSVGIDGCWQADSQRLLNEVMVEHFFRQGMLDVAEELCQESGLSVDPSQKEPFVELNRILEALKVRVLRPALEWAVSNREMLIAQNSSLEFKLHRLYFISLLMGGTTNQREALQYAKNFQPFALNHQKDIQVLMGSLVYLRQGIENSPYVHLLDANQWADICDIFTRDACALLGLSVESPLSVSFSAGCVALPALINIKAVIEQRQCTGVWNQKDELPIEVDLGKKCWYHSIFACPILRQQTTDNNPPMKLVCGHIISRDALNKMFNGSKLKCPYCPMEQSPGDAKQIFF
UniProt Q8NC42: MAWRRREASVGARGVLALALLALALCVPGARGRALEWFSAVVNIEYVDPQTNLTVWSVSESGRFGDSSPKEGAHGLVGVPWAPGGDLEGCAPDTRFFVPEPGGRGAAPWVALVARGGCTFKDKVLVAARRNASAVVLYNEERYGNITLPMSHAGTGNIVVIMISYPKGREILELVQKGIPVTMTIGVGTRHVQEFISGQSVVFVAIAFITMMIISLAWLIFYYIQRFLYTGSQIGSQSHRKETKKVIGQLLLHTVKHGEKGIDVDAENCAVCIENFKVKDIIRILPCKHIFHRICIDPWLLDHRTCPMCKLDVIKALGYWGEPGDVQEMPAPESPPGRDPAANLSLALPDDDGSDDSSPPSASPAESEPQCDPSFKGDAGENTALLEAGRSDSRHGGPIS
UniProt Q9BRS2: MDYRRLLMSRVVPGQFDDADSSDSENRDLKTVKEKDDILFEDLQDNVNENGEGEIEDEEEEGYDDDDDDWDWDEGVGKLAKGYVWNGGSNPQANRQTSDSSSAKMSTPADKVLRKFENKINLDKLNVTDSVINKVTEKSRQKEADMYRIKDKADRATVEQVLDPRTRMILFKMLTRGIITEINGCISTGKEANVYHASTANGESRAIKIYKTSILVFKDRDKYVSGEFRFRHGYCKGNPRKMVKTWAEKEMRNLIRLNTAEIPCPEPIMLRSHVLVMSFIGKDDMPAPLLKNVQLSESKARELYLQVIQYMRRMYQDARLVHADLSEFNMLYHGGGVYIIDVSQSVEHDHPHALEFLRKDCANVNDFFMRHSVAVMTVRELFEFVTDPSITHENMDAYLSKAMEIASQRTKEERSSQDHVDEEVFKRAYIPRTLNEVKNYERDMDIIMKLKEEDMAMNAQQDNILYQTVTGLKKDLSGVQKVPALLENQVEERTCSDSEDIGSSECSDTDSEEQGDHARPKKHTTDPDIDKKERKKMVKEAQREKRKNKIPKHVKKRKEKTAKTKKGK
UniProt P46063: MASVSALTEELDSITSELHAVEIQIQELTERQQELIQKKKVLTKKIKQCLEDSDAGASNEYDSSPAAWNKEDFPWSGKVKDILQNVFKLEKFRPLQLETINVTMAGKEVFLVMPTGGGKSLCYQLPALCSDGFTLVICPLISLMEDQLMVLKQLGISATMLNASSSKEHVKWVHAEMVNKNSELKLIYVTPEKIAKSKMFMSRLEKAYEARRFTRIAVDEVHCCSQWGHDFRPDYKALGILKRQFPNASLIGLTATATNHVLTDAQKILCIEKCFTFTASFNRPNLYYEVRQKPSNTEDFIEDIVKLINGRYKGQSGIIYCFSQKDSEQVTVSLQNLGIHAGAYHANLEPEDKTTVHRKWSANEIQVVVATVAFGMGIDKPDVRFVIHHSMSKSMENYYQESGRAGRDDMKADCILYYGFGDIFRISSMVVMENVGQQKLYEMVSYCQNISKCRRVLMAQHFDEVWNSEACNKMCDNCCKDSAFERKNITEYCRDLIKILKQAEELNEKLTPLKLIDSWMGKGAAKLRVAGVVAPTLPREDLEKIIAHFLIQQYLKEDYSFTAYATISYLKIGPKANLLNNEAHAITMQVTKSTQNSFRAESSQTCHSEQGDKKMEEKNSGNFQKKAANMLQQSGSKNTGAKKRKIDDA
UniProt P62877, whole entry, looked up: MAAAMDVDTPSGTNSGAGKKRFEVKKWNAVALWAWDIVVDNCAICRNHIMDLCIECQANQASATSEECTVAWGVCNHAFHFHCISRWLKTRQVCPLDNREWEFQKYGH
UniProt Q9P258, whole entry, looked up: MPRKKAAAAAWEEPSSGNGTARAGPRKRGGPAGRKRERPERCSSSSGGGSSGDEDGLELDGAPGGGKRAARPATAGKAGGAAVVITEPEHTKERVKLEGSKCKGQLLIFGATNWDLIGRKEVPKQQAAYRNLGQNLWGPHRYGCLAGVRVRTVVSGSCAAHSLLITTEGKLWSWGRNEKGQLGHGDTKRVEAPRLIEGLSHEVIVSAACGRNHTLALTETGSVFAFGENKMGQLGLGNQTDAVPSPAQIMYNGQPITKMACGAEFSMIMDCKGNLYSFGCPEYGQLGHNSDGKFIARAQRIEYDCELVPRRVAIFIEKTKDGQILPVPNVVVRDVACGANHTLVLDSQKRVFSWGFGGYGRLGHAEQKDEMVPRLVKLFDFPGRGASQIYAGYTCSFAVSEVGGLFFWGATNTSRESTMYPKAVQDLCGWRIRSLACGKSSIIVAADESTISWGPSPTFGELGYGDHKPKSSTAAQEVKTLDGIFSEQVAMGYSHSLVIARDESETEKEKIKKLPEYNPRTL
UniProt Q6NUK4: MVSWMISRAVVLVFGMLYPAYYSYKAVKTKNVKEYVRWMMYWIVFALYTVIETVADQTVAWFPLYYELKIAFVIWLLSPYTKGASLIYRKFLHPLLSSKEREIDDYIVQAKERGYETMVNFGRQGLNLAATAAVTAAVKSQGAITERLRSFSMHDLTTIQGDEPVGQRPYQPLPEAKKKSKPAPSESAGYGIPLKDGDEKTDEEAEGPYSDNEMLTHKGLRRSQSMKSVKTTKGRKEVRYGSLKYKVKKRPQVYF
UniProt O15258: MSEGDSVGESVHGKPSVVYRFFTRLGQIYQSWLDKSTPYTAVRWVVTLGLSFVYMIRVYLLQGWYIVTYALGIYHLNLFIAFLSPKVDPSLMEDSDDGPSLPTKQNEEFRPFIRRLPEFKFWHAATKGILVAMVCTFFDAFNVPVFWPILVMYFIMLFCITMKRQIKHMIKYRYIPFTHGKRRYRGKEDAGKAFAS
UniProt Q14257: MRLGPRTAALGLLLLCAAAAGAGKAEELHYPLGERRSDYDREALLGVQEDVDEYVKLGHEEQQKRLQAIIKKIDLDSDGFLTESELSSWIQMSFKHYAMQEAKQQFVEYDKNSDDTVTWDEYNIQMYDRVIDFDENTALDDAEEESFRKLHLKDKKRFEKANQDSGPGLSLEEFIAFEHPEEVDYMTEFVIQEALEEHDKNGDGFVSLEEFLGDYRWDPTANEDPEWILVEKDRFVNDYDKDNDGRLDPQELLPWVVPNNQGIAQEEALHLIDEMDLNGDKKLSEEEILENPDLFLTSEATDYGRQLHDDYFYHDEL
UniProt Q00765: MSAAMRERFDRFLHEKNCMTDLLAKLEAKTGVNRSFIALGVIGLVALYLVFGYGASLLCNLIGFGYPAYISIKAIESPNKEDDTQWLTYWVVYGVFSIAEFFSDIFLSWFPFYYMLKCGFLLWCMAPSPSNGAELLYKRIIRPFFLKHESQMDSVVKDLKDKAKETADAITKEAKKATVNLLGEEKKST
UniProt Q15493: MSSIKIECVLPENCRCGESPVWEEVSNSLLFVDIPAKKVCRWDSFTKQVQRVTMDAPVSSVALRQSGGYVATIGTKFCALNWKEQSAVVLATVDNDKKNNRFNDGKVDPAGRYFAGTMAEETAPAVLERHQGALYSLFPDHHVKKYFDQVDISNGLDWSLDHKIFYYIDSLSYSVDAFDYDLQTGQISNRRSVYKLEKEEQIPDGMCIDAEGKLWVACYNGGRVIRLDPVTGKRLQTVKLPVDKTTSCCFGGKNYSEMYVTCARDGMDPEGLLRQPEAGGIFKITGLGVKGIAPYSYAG
UniProt Q96D71: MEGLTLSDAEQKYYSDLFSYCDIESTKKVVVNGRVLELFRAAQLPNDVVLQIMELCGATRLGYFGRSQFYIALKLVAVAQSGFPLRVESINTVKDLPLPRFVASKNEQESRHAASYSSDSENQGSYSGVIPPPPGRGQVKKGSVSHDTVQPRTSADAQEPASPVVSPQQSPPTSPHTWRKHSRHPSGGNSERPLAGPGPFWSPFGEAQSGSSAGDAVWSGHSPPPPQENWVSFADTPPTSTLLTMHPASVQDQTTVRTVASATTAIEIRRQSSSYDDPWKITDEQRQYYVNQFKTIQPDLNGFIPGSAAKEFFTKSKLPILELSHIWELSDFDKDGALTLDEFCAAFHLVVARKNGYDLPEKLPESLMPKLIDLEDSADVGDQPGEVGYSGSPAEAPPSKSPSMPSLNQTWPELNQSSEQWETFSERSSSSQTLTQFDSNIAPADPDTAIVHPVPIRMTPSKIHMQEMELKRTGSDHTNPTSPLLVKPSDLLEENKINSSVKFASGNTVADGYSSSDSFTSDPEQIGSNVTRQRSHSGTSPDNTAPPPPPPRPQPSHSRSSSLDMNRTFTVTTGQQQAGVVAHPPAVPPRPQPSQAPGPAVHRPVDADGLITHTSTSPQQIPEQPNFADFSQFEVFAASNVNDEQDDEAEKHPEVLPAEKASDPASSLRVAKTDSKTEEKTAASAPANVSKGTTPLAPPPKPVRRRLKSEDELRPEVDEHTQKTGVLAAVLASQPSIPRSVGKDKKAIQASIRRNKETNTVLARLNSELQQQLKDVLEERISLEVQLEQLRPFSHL

How the values were obtained:
Experiment in all cases: log2 fold change, soluble protein after heating vs DMSO (PISA); higher = thermal stabilisation; K562 cells, 10 uM, 30 min; active = over 0.2 and 3.5 SD of the protein, either way, in both replicates (recomputed)
[1] = compound: NC(=O)Nc1cc(-c2cccc(F)c2)sc1C(=O)N[C@H]1CCCNC1
Procedure, shortened: (§1)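 K562 cells at 2×10^6 cells/mL were treated for 30 min with 10 μM compound, and aliquots were heated for 3 min over 48°C-58°C before pooling. Extraction used PBS with 0.5% NP-40 at 4°C, and soluble protein was the supernatant after 21,000xg for 90 min, measured by TMTpro 16plex LC-MS/MS with channel sums equalised. Thermal stability values, relative to control samples and from duplicates, are log2 fold changes.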

[2] = compound: NC(=O)c1cnc(N[C@@H]2CCCC[C@@H]2N)nc1Nc1cccc(-n2nccn2)c1
Procedure, shortened: as §1

[3] = compound: NC1(c2ccc(-c3nc4ccn5c(=O)[nH]nc5c4cc3-c3ccccc3)cc2)CCC1
Procedure, shortened: as §1

[4] = compound: NCC(=O)Nc1ccc(-n2nc(C(F)(F)F)cc2-c2ccc3c(ccc4ccccc43)c2)cc1
Procedure, shortened: as §1

[5] = compound: Nc1ccccc1NC(=O)c1ccc(CNC(=O)OCc2cccnc2)cc1 [entinostat]
Procedure, shortened: as §1

[6] = compound: O=C(CCCCCCC(=O)Nc1ccccc1)NO [vorinostat]
Procedure, shortened: as §1

[7] = compound: O=C(CCCCCCNC(=O)c1cnc(N(c2ccccc2)c2ccccc2Cl)nc1)NO [citarinostat]
Procedure, shortened: as §1

[8] = compound: O=C(O)c1ccc2c(c1)nc(Nc1cccc(Cl)c1)c1ccncc12 [silmitasertib]
Procedure, shortened: as §1

[9] = compound: O=C1NC(=O)C(c2cnc3ccccn23)=C1c1cn2c3c(cc(F)cc13)CN(C(=O)N1CCCCC1)CC2
Procedure, shortened: as §1

[10] = compound: c1cc(OCCN2CCCCC2)cc(-c2n[nH]c3ccc(-c4nnc[nH]4)cc23)c1
Procedure, shortened: as §1

Measured: log2 fold change

RHOXF2 (UniProt Q9BQY4)
inactive: [1] 0.004 | [2] 0.015 | [3] 0.039 | [4] 0.013 | [5] -0.002 | [6] -0.091 | [7] 0.006 | [8] 0.045 | [9] -0.023 | [10] -0.036

RCC1 isoform 2 (UniProt P18754)
inactive: [1] -0.084 | [2] -0.174 | [3] -0.18 | [4] -0.066 | [5] 0.132 | [6] 0.094 | [7] 0.026 | [8] -0.056 | [9] -0.132 | [10] -0.024

RBMX (UniProt P38159)
inactive: [1] 0.059 | [2] 0.121 | [3] 0.336 | [4] 0.005 | [5] 0 | [6] 0.021 | [7] -0.038 | [8] 0.077 | [9] 0.122 | [10] -0.274

RELCH isoform 2 (UniProt Q9P260)
inactive: [1] -0.005 | [2] 0.026 | [3] -0.099 | [4] 0.006 | [5] -0.073 | [6] -0.151 | [7] 0.01 | [8] 0.088 | [9] -0.198 | [10] -0.005

RNF220 (UniProt Q5VTB9)
inactive: [1] 0.01 | [2] -0.019 | [3] -0.002 | [4] -0.06 | [5] -0.037 | [6] 0.052 | [7] 0.043 | [8] 0.025 | [9] -0.075 | [10] -0.038

RMND5A (UniProt Q9H871)
inactive: [1] -0.007 | [2] -0.064 | [3] -0.025 | [4] 0.005 | [5] -0.015 | [6] -0.106 | [7] 0.001 | [8] 0.063 | [9] 0.023 | [10] -0.045

REPIN1 isoform 4 (UniProt Q9BWE0)
inactive: [1] 0.005 | [2] -0.045 | [3] 0.028 | [4] 0.083 | [5] 0.028 | [6] 0.019 | [7] 0.034 | [8] 0.003 | [9] -0.016 | [10] 0.004

RNF149 (UniProt Q8NC42)
inactive: [1] -0.075 | [2] -0.038 | [3] 0.038 | [4] -0.082 | [5] -0.003 | [6] -0.009 | [7] 0.035 | [8] 0.009 | [9] -0.084 | [10] -0.113

RNF2 (UniProt Q99496)
inactive: [1] -0.04 | [2] -0.023 | [3] -0.003 | [4] -0.051 | [5] 0.102 | [6] -0.048 | [7] 0.054 | [8] 0.003 | [9] -0.014 | [10] -0.102

RETREG3 (UniProt Q86VR2)
inactive: [1] 0.046 | [2] -0.033 | [3] -0.047 | [4] 0.048 | [5] 0.007 | [6] -0.045 | [7] 0.003 | [8] 0.04 | [9] -0.086 | [10] -0.03

RIOK1 (UniProt Q9BRS2)
inactive: [1] -0.002 | [2] 0.016 | [3] 0.02 | [4] 0.011 | [5] -0.045 | [6] -0.021 | [7] -0.012 | [8] -0.022 | [9] 0.008 | [10] -0.023

RELN (UniProt P78509)
inactive: [1] 0 | [2] -0.062 | [3] 0.021 | [4] 0.113 | [5] 0.039 | [6] 0.042 | [7] 0.022 | [8] 0.07 | [9] 0.039 | [10] -0.093

RECQL (UniProt P46063)
inactive: [1] 0.034 | [2] -0.076 | [3] -0.047 | [4] -0.033 | [5] 0.001 | [6] 0.045 | [7] 0.092 | [8] -0.028 | [9] -0.019 | [10] -0.03

RBX1 (UniProt P62877)
inactive: [1] -0.065 | [2] -0.013 | [3] 0.438 | [4] -0.009 | [5] -0.042 | [6] 0.011 | [7] 0.042 | [8] -0.172 | [9] 0 | [10] -0.102

RCC2 (UniProt Q9P258)
inactive: [1] -0.054 | [2] -0.039 | [3] -0.044 | [4] -0.054 | [5] -0.01 | [6] -0.007 | [7] 0.01 | [8] -0.036 | [9] -0.088 | [10] 0.008

REEP3 (UniProt Q6NUK4)
inactive: [1] -0.144 | [2] -0.076 | [3] -0.037 | [4] -0.088 | [5] 0.033 | [6] 0.072 | [7] 0.048 | [8] -0.064 | [9] 0.105 | [10] -0.143

RDH13 (UniProt Q8NBN7)
inactive: [1] -0.038 | [2] -0.049 | [3] -0.064 | [4] -0.055 | [5] -0.032 | [6] 0.002 | [7] 0.029 | [8] -0.013 | [9] -0.029 | [10] -0.02

RBM42 (UniProt Q9BTD8)
inactive: [1] 0.053 | [2] 0.061 | [3] 0.126 | [4] 0.062 | [5] -0.03 | [6] 0.086 | [7] 0.011 | [8] 0.068 | [9] 0.09 | [10] -0.106

RER1 (UniProt O15258)
inactive: [1] -0.028 | [2] 0.085 | [3] 0.032 | [4] 0.03 | [5] -0.011 | [6] -0.072 | [7] 0.009 | [8] -0.023 | [9] -0.005 | [10] -0.017

RNF138 (UniProt Q8WVD3)
inactive: [1] -0.012 | [2] -0.331 | [3] -0.049 | [4] 0.018 | [5] 0.061 | [6] -0.05 | [7] 0.02 | [8] -0.06 | [9] -0.006 | [10] -0.034

Taken from the entries so far (2 entries):
RER1 (UniProt O15258)
inactive: [1] -0.028 | [2] 0.085 | [3] 0.032 | [4] 0.03 | [5] -0.011 | [6] -0.072 | [7] 0.009 | [8] -0.023 | [9] -0.005 | [10] -0.017

RNF138 (UniProt Q8WVD3)
inactive: [1] -0.012 | [2] -0.331 | [3] -0.049 | [4] 0.018 | [5] 0.061 | [6] -0.05 | [7] 0.02 | [8] -0.06 | [9] -0.006 | [10] -0.034

Next part:

RNF114 (UniProt Q9Y508)
inactive: [1] -0.025 | [2] -0.027 | [3] 0.009 | [4] 0.009 | [5] -0.02 | [6] -0.035 | [7] 0.056 | [8] -0.008 | [9] -0.064 | [10] -0.016

RMND1 (UniProt Q9NWS8)
inactive: [1] 0.063 | [2] -0.02 | [3] 0.012 | [4] -0.025 | [5] 0.005 | [6] -0.073 | [7] 0.014 | [8] -0.03 | [9] -0.044 | [10] -0.037

RCN2 isoform 2 (UniProt Q14257)
inactive: [1] 0.002 | [2] -0.004 | [3] 0.003 | [4] 0.009 | [5] -0.009 | [6] -0.029 | [7] 0.035 | [8] 0.005 | [9] 0.007 | [10] -0.083

RCC1L (UniProt Q96I51)
inactive: [1] 0.037 | [2] -0.021 | [3] -0.063 | [4] 0.002 | [5] -0.038 | [6] -0.035 | [7] 0.071 | [8] -0.007 | [9] -0.011 | [10] 0.003

REEP5 (UniProt Q00765)
inactive: [1] 0.001 | [2] 0 | [3] 0.026 | [4] -0.037 | [5] -0.011 | [6] -0.016 | [7] -0.054 | [8] 0.049 | [9] -0.091 | [10] -0.025

RIC1 (UniProt Q4ADV7)
inactive: [1] -0.069 | [2] -0.084 | [3] -0.011 | [4] -0.074 | [5] 0.123 | [6] -0.176 | [7] 0.135 | [8] -0.003 | [9] 0.388 | [10] -0.024

RGN (UniProt Q15493)
inactive: [1] 0.121 | [2] 0.13 | [4] -0.082 | [5] -0.074 | [7] -0.171 | [10] 0

REPS1 (UniProt Q96D71)
inactive: [1] -0.003 | [2] 0.141 | [4] -0.005 | [5] 0.004 | [6] 0.062 | [7] 0.004 | [9] 0.123 | [10] -0.192

RHEB (UniProt Q15382)
inactive: [1] -0.042 | [2] -0.014 | [3] -0.058 | [4] -0.029 | [5] -0.012 | [6] 0.002 | [7] 0.022 | [8] -0.033 | [9] -0.038 | [10] -0.025
